Measured values as given in patent US12203144B2, “Analytes' detection using regulated in vitro transcription” (Northwestern University, priority 2018, dated 2025).
At least one structure is not confirmed: it was looked up by name or label, or the drawing left a doubt. Some compounds share one wording; it may come from a single statement.

By UniProt entry, the sequences of proteins in these tests, tags left out. Where a name states a change or a piece, a line headed by the entry shows the natural chain unless it says otherwise.
UniProt P04483: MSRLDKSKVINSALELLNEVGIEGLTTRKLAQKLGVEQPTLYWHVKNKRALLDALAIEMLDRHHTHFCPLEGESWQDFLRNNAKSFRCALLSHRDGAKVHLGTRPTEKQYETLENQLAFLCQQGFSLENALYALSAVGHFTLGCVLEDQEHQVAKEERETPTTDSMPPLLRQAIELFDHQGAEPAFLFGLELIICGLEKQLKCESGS

Assays:
Assay type in all cases: biochemical
TetR [1] = target: T1, TetR (Escherichia coli, UniProt P04483); test: TetR regulated in vitro transcription of 3WJdB, derepression by ligand; conditions: for relief of TetR repression, aptamer-activated fluorescence: 200 pmol of antibiotic, T7 RNAP, FIG. 7
T1 construct: 6xHis; made in house; host or cells: E. coli Rosetta 2(DE3)pLysS
Text: The family of tetracycline antibiotics are known ligands of the TetR repressor—they can induce an allosteric conformational change in TetR that results in a lowered affinity for the DNA operator sequence. Importantly, TetR repression of in vitro transcription is relieved if a cognate ligand is included immediately prior to measurement and coincident with the addition of T7 RNAP. […] This included anhydrotetracyline, tetracycline, oxytetracycline, chlortetracycline, and doxycycline. […] The 2 BP spacer (“GG”) promotes efficient transcription initiation with T7 RNAP.
Finally, to validate that the TetR regulated in vitro transcription reactions were specifically responsive to tetracycline antibiotics and that fluorescence was not due to nonspecific activity, we tested the TetR regulated in vitro transcription reaction of the 3WJdB output against macrolide antibiotics (FIG. 10A) as well as other common antibiotics used in biological research (FIG. 10B). None of the non-tetracycline antibiotics tested here is known to induce a conformational change in TetR. In all cases, strong repression of transcription was observed over the course of 2 hours except when tested against the positive control (anhydrotetracyline), or in the absence of the repressor (the unregulated reaction).

TetR [2] = target: T1, TetR; test: tetO-regulated KB2 kleptamer circuit (inverted TetR response); conditions: tetO KB2 template plus TetR, FIG. 22
TetR [3] = target: T1, TetR; conditions: TetR-regulated antiTetR feedback loop, FIG. 28

Row | Structure (SMILES) | relief of TetR repression, aptamer-activated fluorescence (TetR [1]) | fluorescence-activation in inverted (kleptamer) circuit (TetR [2]) | signal across ligand families (TetR [1]; FIG. 24) | sensitivity of tetracycline sensor (TetR [3])
1 | CN(C)[C@@H]1C(O)=C(C(N)=O)C(=O)[C@@]2(O)C(O)=C3C(=O)c4c(O)cccc4[C@@](C)(O)[C@H]3[C@H](O)[C@@H]12 [oxytetracycline] | restored aptamer-activated fluorescence close to or exceeding the level of fluorescence observed | – | – | –
2 | CN(C)[C@@H]1C(O)=C(C(N)=O)C(=O)[C@@]2(O)C(O)=C3C(=O)c4c(O)ccc(Cl)c4[C@@](C)(O)[C@H]3C[C@@H]12 [chlortetracycline] | restored aptamer-activated fluorescence close to or exceeding the level of fluorescence observed | – | – | –
3 | C[C@H]1c2cccc(O)c2C(=O)C2=C(O)[C@]3(O)C(=O)C(C(N)=O)=C(O)[C@@H](N(C)C)[C@@H]3[C@@H](O)[C@@H]21 [doxycycline] | restored aptamer-activated fluorescence close to or exceeding the level of fluorescence observed | – | – | –
4 | CN(C)[C@@H]1C(O)=C(C(N)=O)C(=O)[C@@]2(O)C(O)=C3C(=O)c4c(O)cccc4[C@@](C)(O)[C@H]3C[C@@H]12 [tetracycline] | restored aptamer-activated fluorescence close to or exceeding the level of fluorescence observed | decreased fluorescence-activation | strong signals from cognate ligands with minimal crosstalk | hundreds of ppb
